PubChem BioAssay AID504444 (National Center for Advancing Translational Sciences (NCATS), 2011)
The whole screen tested about 360,000 compounds, of which about 7,500 (2.1%) were called active. The inconclusive results got no clear call from the source; some entries with a clear call stand among them for comparison. The call rests on the fitted dose curve; in most records, active means well fitted inhibition curve with a large enough effect; inconclusive means small, poorly fitted or top-dose-only effect, or effect the other way; inactive means flat fitted curve, though single readings scatter. Potencies of inconclusive entries are doubtful fits and often do not repeat.

assay: Nrf2 qHTS screen for inhibitors; conditions: A549 ARE-Fluc reporter, luciferase luminescence, 18-24 h; series mostly up to 46 µM; further: nearly all actives have a fitted effect of over 60% in size
How it was run: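 A549 ARE_Fluc cells (5000/well, 5% FBS OPTI-MEM) pre-incubated 2 h, then treated with compounds 18-24 h at 37C/5% CO2 in concentration-response. CellTiter-Fluor viability read first; BugLite luciferase luminescence after 15 min at room temperature gives Nrf2 activity.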
Potency means the concentration at half of the fitted maximal effect.

Row | Compound | Potency
1 | O=C1C=C(c2ccccc2)C(=O)N1Nc1ccccc1 | inactive
2 | O=C1NC2=C(C(=O)CCC2)C(c2ccc(OC(F)F)cc2)N1 (stereo not drawn) | inconclusive: 29.1 µM [activator, single point]
3 | Cc1ccc(SCc2nn(C)c(Cl)c2C=O)cc1 | inconclusive: 5.17 µM [activator, partial curve]
4 | CCOC(=O)C1(CC2CC2)CCN(Cc2cnc(-c3ccc(OC)cc3)nc2)CC1 | inconclusive: 29.1 µM [falling, single point]
5 | Cn1c(N)c(C(=O)COC(=O)c2cc(C(F)(F)F)nc3ccccc23)c(=O)n(Cc2ccccc2)c1=O | active: 20.6 µM
6 | CC(=O)N/C(=C\c1ccc(F)cc1)C(=O)OC(C)C | inconclusive: 6.51 µM [falling, partial curve, poor fit]
7 | Cc1ccc2nc(N3C(=O)C(O)=C(C(=O)c4ccc(C)o4)C3c3cccc(O)c3)sc2c1 (stereo not drawn) | inactive
8 | CNS(=O)(=O)c1ccc(C(C)(C)C)cc1 | inactive
9 | O=C(Nc1cccc(NC(=O)c2cccs2)c1)c1ccc(F)cc1 | inconclusive: 20.6 µM [activator, single point]
10 | COc1ccc(-n2nc(C(=O)NCC(=O)N3CCN(c4ccccc4)CC3)c3ccccc3c2=O)cc1OC | inactive
11 | CC[N+](C)(CC)CCOC(=O)C(O)(c1ccccc1)C1CCCCC1 (stereo not drawn) | active: 7.31 µM
12 | Cc1nn(-c2ccccc2)c(C)c1CCC(=O)O | inconclusive: 10.3 µM [activator, partial curve]
13 | COc1cc2c(cc1OC)C(C)N(CCc1ccc(Cl)cc1)CC2 (stereo not drawn) | inconclusive: 18.4 µM [falling, partial curve, poor fit]
14 | COC(=O)c1ccccc1S(=O)(=O)Oc1ccc(-c2ccc(C(=O)O)cc2)cc1 | inactive
15 | Cc1cccc(C)c1NC(=O)CCS(=O)(=O)c1ccc2c(c1)CC(C)N2C(=O)C1CC1 (stereo not drawn) | inactive
16 | COc1cc2c(C#N)c(N3CCCCC3)nc(N)c2c(N)n1 | inconclusive: 29.1 µM [falling, single point]
17 | CN(CC(=O)N1CCN(Cc2ccccc2)CC1)S(=O)(=O)c1cccc2nsnc12 | inconclusive: 6.51 µM [falling, full curve]
18 | CSc1nc(N)n2nc(-c3ccccc3)cc2n1 | inconclusive: 5.17 µM [activator, partial curve]
19 | CCCCCCSc1ccc([C@H]2N[C@@](CC(C)C)(C(=O)OC)[C@H]3C(=O)N(CC)C(=O)[C@@H]23)cc1 | inconclusive: 14.6 µM [falling, partial curve, poor fit]
20 | NC(=O)COc1ccc(/C=N/NS(=O)(=O)c2ccccc2)cc1 | inconclusive: 29.1 µM [falling, single point]
21 | O=C(NCc1ccccc1)C1CCN(S(=O)(=O)c2ccc(N3CCCC3=O)cc2)CC1 | inconclusive: 29.1 µM [falling, single point]
22 | Cc1nn(-c2ccccc2)c(C)c1NC(=O)COC(=O)c1cc(Cl)ccc1O | inactive

Row | Compound | Potency
23 | Cc1nnc(SCC(=O)N2c3ccccc3C(C)(c3ccccc3)CC2(C)C)s1 (stereo not drawn) | active: 23.1 µM
24 | Cc1ccc(C(=O)OCc2ccc3c(c2)OCO3)cc1S(=O)(=O)N1CCCCC1 | inconclusive: 10.3 µM [falling, partial curve]
25 | O=C(O)c1ccc(N/N=C/c2cc3c(cc2[N+](=O)[O-])OCO3)cc1 | inconclusive: 7.31 µM [activator, partial curve]
26 | CCCn1nc(C(=O)Nc2ccc(S(=O)(=O)Nc3nccs3)cc2)c2ccccc2c1=O | inconclusive: 29.1 µM [falling, single point]
27 | CCn1c(SC2CCOC2=O)nnc1-c1ccc(Cl)cc1 (stereo not drawn) | inconclusive: 6.51 µM [falling, single point]
28 | Cc1ccc2nc(/C(C#N)=C\c3cc(O)ccc3[N+](=O)[O-])[nH]c2c1 | inactive
29 | CC12CCC(=O)N1C(C(=O)N1CCN(c3ccc(C(F)(F)F)cc3[N+](=O)[O-])CC1)CS2 (stereo not drawn) | inconclusive: 10.3 µM [falling, partial curve, poor fit]
30 | Cn1nc(-c2ccccc2)c(CO)c1Oc1cccc(C(F)(F)F)c1 | inconclusive: 23.1 µM [falling, single point]
31 | Cc1ccc(Nc2cc(C)nc(-c3ccccc3O)n2)cc1 | inconclusive: 23.1 µM [activator, single point]
32 | COc1cccc(NC(=O)CN(C)C(=O)c2cn(-c3ccccc3)nc2-c2cccs2)c1 | inconclusive: 29.1 µM [falling, single point]
33 | Cc1csc(NC(=O)Nc2cccc(Cl)c2)n1 | inconclusive: 9.2 µM [activator, partial curve, poor fit]
34 | CC(C)(C)c1ccc2c(c1)C(=O)c1ccccc1C2=O | inconclusive: 9.2 µM [activator, partial curve]
35 | COc1ccc(-c2ccc(SCC(=O)NCc3ccc4c(c3)OCO4)nn2)cc1OC | inconclusive: 1.84 µM [falling, full curve, poor fit]
36 | O=C1c2ccccc2-c2nc3ccccc3n21 | inconclusive: 23.1 µM [activator, partial curve]
37 | CC(C)(C)c1ccc(C(=O)Cn2nc(C(=O)O)c3ccccc3c2=O)cc1 | inconclusive: 16.4 µM [falling, single point]
38 | Cc1cccc(NS(=O)(=O)c2ccc(Cl)c(C(=O)Nc3ccccc3C)c2)c1 | inconclusive: 4.61 µM [falling, full curve]
39 | O=C(NCc1ccccc1)c1cc(-c2ccco2)on1 | inactive
40 | O=C(C1CC(=O)N(C2CCCC2)C1)N1CCN(c2cccc(Cl)c2)CC1 (stereo not drawn) | inconclusive: 23.1 µM [falling, single point]
41 | O=C(O)c1ccc(-c2noc(-c3ccccc3C(F)(F)F)n2)cc1 | inconclusive: 29.1 µM [falling, single point]
42 | CC(C)Cn1c(-c2ccc(S(=O)(=O)N3CCCC3)cc2)csc1=Nc1ccccc1 | active: 16.4 µM
43 | CC(OC(=O)c1ccco1)C(=O)Nc1nc(-c2ccccc2)cs1 (stereo not drawn) | inconclusive: 18.4 µM [activator, single point]

Not a retest: entries from further up.
Row | Compound | Potency
30 | Cn1nc(-c2ccccc2)c(CO)c1Oc1cccc(C(F)(F)F)c1 | inconclusive: 23.1 µM [falling, single point]
31 | Cc1ccc(Nc2cc(C)nc(-c3ccccc3O)n2)cc1 | inconclusive: 23.1 µM [activator, single point]
32 | COc1cccc(NC(=O)CN(C)C(=O)c2cn(-c3ccccc3)nc2-c2cccs2)c1 | inconclusive: 29.1 µM [falling, single point]
33 | Cc1csc(NC(=O)Nc2cccc(Cl)c2)n1 | inconclusive: 9.2 µM [activator, partial curve, poor fit]
34 | CC(C)(C)c1ccc2c(c1)C(=O)c1ccccc1C2=O | inconclusive: 9.2 µM [activator, partial curve]
35 | COc1ccc(-c2ccc(SCC(=O)NCc3ccc4c(c3)OCO4)nn2)cc1OC | inconclusive: 1.84 µM [falling, full curve, poor fit]
36 | O=C1c2ccccc2-c2nc3ccccc3n21 | inconclusive: 23.1 µM [activator, partial curve]
37 | CC(C)(C)c1ccc(C(=O)Cn2nc(C(=O)O)c3ccccc3c2=O)cc1 | inconclusive: 16.4 µM [falling, single point]
38 | Cc1cccc(NS(=O)(=O)c2ccc(Cl)c(C(=O)Nc3ccccc3C)c2)c1 | inconclusive: 4.61 µM [falling, full curve]
